Among the data in the supplement of paper PMC12819154, “High-throughput peptide-centric local stability assay extends protein–ligand identification to membrane proteins, tissues and bacteria” (Nature Structural & Molecular Biology, 2025) are log2 fold change values, retold here.

Chains of the proteins cited; added tags and fusions are not shown. Lines headed by an entry give the natural chain unless they say otherwise; changes in a name come on top.
UniProt Q5EBM0: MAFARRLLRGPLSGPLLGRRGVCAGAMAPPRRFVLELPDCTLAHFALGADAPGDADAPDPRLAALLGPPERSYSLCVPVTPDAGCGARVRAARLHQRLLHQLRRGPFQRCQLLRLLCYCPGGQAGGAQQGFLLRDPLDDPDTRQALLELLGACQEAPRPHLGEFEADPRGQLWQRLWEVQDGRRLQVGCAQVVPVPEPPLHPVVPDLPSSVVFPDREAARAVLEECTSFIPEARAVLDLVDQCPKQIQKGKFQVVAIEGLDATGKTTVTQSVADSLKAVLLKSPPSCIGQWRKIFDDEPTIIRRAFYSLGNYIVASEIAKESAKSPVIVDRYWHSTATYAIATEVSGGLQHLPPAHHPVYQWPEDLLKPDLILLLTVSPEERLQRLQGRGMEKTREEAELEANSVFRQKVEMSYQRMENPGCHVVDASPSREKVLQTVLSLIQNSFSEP
UniProt Q5T0N5: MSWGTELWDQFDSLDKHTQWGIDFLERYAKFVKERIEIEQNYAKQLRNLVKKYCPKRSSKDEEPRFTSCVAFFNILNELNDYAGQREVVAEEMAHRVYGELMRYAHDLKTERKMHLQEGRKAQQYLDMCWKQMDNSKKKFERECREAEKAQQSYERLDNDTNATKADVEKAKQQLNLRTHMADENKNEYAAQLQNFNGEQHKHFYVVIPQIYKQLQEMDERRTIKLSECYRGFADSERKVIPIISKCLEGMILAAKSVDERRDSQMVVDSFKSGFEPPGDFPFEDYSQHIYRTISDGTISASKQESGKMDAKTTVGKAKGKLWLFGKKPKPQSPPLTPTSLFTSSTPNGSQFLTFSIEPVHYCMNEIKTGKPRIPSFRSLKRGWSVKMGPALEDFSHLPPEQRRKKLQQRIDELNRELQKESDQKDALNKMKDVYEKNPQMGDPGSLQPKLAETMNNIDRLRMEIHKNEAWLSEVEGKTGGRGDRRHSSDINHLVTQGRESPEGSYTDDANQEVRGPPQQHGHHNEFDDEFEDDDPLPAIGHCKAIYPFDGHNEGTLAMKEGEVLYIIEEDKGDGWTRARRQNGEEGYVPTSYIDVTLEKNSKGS
UniProt Q5TA45, whole entry: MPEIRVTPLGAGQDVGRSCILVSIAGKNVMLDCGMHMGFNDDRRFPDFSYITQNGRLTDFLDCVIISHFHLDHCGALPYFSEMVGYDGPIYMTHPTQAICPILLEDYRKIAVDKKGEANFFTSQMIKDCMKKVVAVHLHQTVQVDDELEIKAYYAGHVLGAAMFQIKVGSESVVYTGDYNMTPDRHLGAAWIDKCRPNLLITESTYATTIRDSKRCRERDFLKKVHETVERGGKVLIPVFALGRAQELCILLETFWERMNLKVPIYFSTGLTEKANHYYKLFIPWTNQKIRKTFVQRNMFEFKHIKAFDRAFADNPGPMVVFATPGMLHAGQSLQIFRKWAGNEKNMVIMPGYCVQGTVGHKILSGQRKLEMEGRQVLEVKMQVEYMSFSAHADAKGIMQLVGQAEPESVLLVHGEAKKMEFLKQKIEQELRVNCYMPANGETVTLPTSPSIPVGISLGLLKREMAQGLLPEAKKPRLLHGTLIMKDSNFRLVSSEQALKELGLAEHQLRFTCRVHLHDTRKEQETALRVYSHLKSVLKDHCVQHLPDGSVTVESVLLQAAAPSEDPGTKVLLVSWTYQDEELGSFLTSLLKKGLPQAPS
UniProt Q5T6L9: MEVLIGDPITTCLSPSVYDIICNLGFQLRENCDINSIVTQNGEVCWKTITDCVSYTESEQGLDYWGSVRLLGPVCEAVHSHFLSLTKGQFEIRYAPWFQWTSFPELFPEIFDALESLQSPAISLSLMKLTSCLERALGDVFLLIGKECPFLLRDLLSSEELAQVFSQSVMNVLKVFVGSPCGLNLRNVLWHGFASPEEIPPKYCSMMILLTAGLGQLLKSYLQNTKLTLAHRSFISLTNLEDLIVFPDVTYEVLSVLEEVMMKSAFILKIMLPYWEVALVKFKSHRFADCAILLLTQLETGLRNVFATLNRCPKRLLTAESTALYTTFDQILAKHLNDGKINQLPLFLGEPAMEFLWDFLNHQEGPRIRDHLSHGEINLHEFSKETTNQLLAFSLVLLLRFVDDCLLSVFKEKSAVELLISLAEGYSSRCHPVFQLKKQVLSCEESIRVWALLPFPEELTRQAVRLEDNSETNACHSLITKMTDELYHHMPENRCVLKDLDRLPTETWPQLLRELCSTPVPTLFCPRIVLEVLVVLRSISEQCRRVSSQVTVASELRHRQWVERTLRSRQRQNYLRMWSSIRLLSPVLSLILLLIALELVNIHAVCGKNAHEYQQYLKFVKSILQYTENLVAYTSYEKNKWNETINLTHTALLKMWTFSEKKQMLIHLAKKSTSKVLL
UniProt Q5BJD5: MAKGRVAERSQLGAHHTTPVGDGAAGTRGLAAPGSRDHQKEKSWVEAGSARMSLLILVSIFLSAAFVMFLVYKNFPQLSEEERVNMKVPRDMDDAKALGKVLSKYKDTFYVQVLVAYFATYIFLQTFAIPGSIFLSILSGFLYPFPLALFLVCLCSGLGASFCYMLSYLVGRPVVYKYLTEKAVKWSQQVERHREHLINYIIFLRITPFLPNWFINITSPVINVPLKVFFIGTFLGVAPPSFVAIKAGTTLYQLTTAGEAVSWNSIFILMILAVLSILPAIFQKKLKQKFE
UniProt Q4L235: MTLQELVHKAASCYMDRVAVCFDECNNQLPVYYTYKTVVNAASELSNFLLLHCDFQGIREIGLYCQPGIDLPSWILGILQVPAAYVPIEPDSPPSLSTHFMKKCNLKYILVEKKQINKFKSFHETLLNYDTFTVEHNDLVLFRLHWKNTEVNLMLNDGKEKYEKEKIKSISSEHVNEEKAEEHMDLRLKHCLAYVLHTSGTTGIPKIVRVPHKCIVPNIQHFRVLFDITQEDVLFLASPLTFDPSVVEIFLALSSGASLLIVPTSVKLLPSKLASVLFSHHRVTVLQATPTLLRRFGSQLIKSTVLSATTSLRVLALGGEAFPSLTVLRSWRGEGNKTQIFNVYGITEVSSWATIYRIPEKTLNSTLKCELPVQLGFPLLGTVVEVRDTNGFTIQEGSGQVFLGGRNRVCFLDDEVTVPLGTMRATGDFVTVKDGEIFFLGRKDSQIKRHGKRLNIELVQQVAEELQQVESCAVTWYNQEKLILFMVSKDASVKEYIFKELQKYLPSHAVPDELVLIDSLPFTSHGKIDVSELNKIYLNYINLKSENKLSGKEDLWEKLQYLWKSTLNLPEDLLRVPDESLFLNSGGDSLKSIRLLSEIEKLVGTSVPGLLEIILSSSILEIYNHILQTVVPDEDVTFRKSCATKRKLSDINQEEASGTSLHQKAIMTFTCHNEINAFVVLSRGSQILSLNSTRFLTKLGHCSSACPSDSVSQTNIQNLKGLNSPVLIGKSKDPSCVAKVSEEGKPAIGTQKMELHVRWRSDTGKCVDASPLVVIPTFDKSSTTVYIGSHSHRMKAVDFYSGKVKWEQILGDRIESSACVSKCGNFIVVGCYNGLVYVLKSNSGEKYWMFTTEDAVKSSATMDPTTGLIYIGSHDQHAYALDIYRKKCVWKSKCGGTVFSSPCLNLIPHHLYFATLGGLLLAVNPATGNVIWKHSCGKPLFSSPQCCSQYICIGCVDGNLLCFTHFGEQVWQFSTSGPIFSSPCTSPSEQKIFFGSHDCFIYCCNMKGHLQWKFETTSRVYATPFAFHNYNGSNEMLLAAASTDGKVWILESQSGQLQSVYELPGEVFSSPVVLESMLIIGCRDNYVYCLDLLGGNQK
UniProt Q562E7: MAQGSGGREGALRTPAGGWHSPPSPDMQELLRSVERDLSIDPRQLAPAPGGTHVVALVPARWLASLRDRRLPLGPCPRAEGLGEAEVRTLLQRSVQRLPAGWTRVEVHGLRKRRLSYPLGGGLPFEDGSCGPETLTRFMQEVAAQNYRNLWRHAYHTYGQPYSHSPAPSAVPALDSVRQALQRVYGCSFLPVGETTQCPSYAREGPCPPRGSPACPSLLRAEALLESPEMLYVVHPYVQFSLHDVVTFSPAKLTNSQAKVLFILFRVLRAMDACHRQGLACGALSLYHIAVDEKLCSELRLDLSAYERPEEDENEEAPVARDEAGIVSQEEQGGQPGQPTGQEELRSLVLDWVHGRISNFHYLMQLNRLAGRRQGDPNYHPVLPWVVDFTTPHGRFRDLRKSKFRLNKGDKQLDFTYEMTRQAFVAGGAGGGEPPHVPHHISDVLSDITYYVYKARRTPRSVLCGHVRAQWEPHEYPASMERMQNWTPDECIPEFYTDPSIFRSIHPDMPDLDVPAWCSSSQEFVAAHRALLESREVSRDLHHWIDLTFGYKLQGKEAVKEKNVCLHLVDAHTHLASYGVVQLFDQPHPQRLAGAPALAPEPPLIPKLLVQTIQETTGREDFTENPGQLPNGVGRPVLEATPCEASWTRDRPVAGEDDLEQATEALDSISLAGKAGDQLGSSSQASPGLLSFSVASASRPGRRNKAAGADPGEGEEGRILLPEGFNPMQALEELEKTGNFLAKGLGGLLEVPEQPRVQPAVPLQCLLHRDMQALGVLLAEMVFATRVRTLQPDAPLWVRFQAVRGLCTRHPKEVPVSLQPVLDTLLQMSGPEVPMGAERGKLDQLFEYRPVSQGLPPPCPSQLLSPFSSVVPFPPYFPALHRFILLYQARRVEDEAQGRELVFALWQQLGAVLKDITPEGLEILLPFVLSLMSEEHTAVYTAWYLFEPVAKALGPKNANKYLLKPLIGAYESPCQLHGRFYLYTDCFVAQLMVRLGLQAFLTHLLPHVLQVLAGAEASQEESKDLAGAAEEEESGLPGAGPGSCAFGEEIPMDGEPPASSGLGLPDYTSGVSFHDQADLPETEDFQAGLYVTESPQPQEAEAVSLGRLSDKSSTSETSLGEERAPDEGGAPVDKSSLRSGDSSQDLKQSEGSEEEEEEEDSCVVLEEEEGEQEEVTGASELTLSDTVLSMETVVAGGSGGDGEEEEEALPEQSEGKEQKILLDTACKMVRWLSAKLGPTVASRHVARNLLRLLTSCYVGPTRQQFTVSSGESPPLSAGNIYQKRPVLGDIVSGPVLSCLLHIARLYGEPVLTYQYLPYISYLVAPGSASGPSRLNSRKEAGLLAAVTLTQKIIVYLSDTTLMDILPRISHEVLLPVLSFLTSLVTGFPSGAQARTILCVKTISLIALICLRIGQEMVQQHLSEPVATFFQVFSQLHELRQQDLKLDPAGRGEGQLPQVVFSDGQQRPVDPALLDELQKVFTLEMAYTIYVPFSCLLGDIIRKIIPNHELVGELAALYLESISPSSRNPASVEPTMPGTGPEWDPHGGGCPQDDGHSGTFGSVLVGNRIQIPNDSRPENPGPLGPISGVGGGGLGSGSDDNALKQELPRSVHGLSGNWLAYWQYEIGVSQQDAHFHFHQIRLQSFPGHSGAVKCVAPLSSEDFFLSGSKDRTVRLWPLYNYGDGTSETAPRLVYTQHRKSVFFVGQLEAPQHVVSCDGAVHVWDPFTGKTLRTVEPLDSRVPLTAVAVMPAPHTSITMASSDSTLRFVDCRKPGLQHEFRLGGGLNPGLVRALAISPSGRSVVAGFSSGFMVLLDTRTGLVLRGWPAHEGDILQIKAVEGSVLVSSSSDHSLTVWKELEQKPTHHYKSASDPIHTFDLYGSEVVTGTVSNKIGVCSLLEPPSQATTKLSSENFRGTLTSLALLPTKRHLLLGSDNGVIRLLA
UniProt Q5VW32: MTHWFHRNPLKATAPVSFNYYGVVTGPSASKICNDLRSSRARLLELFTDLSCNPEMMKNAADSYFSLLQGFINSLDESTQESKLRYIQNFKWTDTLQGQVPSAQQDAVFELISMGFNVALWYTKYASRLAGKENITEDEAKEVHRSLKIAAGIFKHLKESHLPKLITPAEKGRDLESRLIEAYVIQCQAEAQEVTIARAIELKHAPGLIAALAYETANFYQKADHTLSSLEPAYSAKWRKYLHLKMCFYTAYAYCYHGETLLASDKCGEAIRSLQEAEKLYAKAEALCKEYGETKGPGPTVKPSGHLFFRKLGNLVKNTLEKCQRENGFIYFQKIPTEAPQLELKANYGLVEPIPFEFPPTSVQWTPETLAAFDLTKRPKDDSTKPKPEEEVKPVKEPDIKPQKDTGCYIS

Compound in this assay: CN[C@@H]1C[C@H]2O[C@@](C)([C@@H]1OC)n1c3ccccc3c3c4c(c5c6ccccc6n2c5c31)C(=O)NC4 [staurosporine]
Description: log2 fold change of tryptic peptide abundance, ligand vs vehicle (limited proteolysis) (log2 ratio); higher = more trypsin-susceptible (destabilized). The following applies: ligand concentration: 20 uM; sample: K562 cleared lysate; digestion: 4 min, 22 C (HT-PELSA RT4min, Orbitrap Astral).

Some of the results follow. Most values lie at the level of the controls, where differences are scatter.

For the target “CMPK2 (peptide sequence: MENPGCHVVDASPSREK, peptide start residue: 417) (UniProt Q5EBM0)”, the log2 fold change turned out to be 0.539.

Turning to “FNBP1L (peptide sequence: MKDVYEK, peptide start residue: 427) (UniProt Q5T0N5)”, the log2 fold change was determined as 0.291.

Regarding “IQSEC2 (peptide sequence: GFLSDTPVGVAHFILERK, peptide start residue: 779) (UniProt Q5JU85)”, the log2 fold change is -0.744.

For “UniProt Q5TA45 (peptide sequence: LFIPWTNQK, peptide start residue: 281)”, the log2 fold change was found to be 0.114.

Regarding “ERMARD (peptide sequence: MTDELYHHMPENR, peptide start residue: 482) (UniProt Q5T6L9)”, the log2 fold change is -0.165.

As to “TMEM41B (peptide sequence: SQLGAHHTTPVGDGAAGTR, peptide start residue: 10) (UniProt Q5BJD5)”, the log2 fold change amounted to 0.0607.

As to “MIA3 (peptide sequence: LHTLSVEHQR, peptide start residue: 606) (UniProt Q5JRA6)”, the log2 fold change is 0.822.

Turning to “AASDH (peptide sequence: GLNSPVLIGK, peptide start residue: 721) (UniProt Q4L235)”, the log2 fold change is -0.349.

Take “WDR81 (peptide sequence: TLQPDAPLWVR, peptide start residue: 789) (UniProt Q562E7)”: the log2 fold change is 0.199.

For the target “UniProt Q5VW32 (peptide sequence: GPGPTVKPSGHLFFR, peptide start residue: 296)”, the log2 fold change was 0.415.
